{
  "source": "paper PMC4696680",
  "target": "T1, Fis (Escherichia coli) (UniProt P0A6R3)",
  "T1 sequence (looked up, limits assumed)": "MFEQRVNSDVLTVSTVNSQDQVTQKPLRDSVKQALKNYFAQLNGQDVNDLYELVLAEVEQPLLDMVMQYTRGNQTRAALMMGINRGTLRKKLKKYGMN",
  "experiment": "EMSA",
  "conditions": "Gel shift under standard conditions of ref 64, pH and temperature not given, recombinant protein, protein details: His-tag (pET21a), label: 5'-FITC on one primer, probe letters rebuilt from the primers and the genome",
  "key": {"[1]": {"conditions": "number of Fis sites as reported previously"}},
  "note": "For at least one entry, the source does not settle the construct or the ends of the probe. Where a protein sequence is shown, tags need not be part of it.",
  "data": [
    {"sequence": "GAAGATCTGATTCTGGCGCAGCGATTGCTCGCCGAACGGCCTGGTTGTTAGAACATGAAGCCCCGGATGCAAAATCTGCCGATGCGAATATTGCCTTTTGTATGGCAATGACGCCAGGAGCTGAACAATTATTGCCCGTTTTACAGCGTTACGGCTTCGAAACGCTCGAAAAACTGGCAGTTTTAGGCTGATTTGGTTGAATGTTGCGCGGTCAGAAAATTATTTTAAATTTCCTCTTGTCAGGCCGGAATAACTCCCTATAATGCGCCACCACTGACACGGAACAACGGCAAACACGCCGCCGGGTCAGCGGGGTTCTCCTGAGAACTCCGGCAGAGAAAGCAAAAATAAATGCTTGACTCTGTAGCGGGAAGGCGTATTATGCACACCCCGCGCCGCTGAGAAAAAGCGAAGCGGCACTGCTCTTTAACAATTTATCAGACAATCTGTGTGGGCACTCGAAGATACGGATTCTTAACGTCGCAAGACGAAAAATGAATACCAAGTCTCAAGAGTGAACACGTAATTCATTACGAAGTTTAATTCTTTGAGCGTCAACATTTTGAATTCC (double strand) [rrnB promoter probe]", "values": [
      {"measurement": "binding result", "setting": "[1]", "value": "binds"}
    ]},
    {"sequence": "GAAGATCTGAAAGGTTTTTCTGTGCAGCTAACTGTTGTGCGCTTAAAGGCATTACTTATCTTCCTTTTTCTTTTTATTCCTCCTTAGTATGCCACCAGGAAGTGTGATTACGGTTGCAAAAACGGCAAATTGCTTGTTTTATGGCACATTAACGGGGCTTTTGCTGAAAAAATGCGCGGTCAGAAAATTATTTTAAATTTCCTCTTGTCAGGCCGGAATAACTCCCTATAATGCGCCACCACTGACACGGAACAACGGCAAACACGCCGCCGGGTCAGCGGGGTTCTCCTGAGAACTCCGGCAGAGAAAGCAAAAATAAATGCTTGACTCTGTAGCGGGAAAGCGTATTATGCACACCCCGCGCCGCTGAGAAAAAGCAAAGCGGCACTGCTCTTTAACAATTTATCAGACAATCTGTGTGGGCACTCGAAGATACGGATTCTTAACGTCGCAAGACGAAAAATGAATACCAAGTCTCAAGAGTGAACACGTAATTCATTACGAAGTTTAATTCTTTGAGCATCAAACTTTTGAATTCC (double strand) [rrnC promoter probe]", "values": [
      {"measurement": "binding result", "setting": "[1]", "value": "binds"}
    ]},
    {"sequence": "GGAATTCAAAAGTTTGATGCTCAAAGAATTAAACTTCGTAATGAATTACGTGTTCACTCTTGAGACTTGGTATTCATTTTTCGTCTTGCGACGTTAAGAATCCGTATCTTCGAGTGCCCACACAGATTGTCTGATAAATTGTTAAAGAGCAGTGCCGCTTCGCTTTTTCTCAGCGGCGCGGGGTGTGCATAATACGCCTTCCCGCTACAGAGTCAAGCATTTCTTTGCTTTTCTCTGTTGAGATTCTCAGGAGAACCCCGCCGACCCGGCGGCGTGTTTGCCGTTGTTCCGTGTCAGTGGTGGCGCATTATAGGGAGTTATTCCGGCCTGACAAGCGAAAAATATAAAAACTTTATCGTTCGCTCACTTTTCAGGCAAAACATCTTAAATATAGTCTTTTCCGTCTAACTTATAGACAAAAACGAGCCCCGAAGGGCTCGTTTTATCATTTACTGGACGGCGACAATCCGGTCTTCATTAACTTCCAGGCGAATCACTTTACCCGGAACCAATTCACCAGACAGTATTTGCTGTGCCAGCGGGTTTTCGATCTGCTGCAGATCTTC (double strand) [rrnG promoter probe]", "values": [
      {"measurement": "binding result", "setting": "more than 6 apparent sites, cooperative", "value": "binds"}
    ]},
    {"sequence": "GGAATTCAAAAGTTTGATGCTCAAAGAATTAAACTTCGTAATGAATTACGTGTTCACTCTTGAGACTTGGTATTCATTTTTCGTCTTGCGACGTTAAGAATCCGTATCTTCGAGTGCCCACACAGATTGTCTGATAAATTGTTAAAGAGCAGTTGCGACGCGCTTTAGCGCACTGTCGCGAGGTGGCGTATATTACGCTTTCCTCTTTCAGAGTCAACCCTGAATTTCAGGATTTTTCTCTTCAACCGAACCGGCTGTTTGTGTGAAGTGATTCACATCCGCCGTGTCGATGGAGGCGCATTATAGGGAGTTCTCCGCAGGCCGCAATAGAAAAATTGCAGAAAAATGACTGACTGCTGCATTCCCCAGCAAAAGCCCGCTTTATACCTTTTTACGCACAGAGTTATCCACAATCATCAATGTAATTTCTGTATTTTGCCCACGGTAACCACAGTCAAAATTGTGATCACCATTGAAAGAGAAAAATTCGCGAGCGTTGCGCAAACGTTTTCGTTACAATGCGGGCGAAAAATAAGGATGCCCCGTTAGGGGCGTTAGCTGAGAGATCTTC (double strand) [rrnE promoter probe]", "values": [
      {"measurement": "binding result", "setting": "more than 8 apparent sites, cooperative", "value": "binds"}
    ]},
    {"sequence": "GGAATTCAAAAGTTTGATGCTCAAAGAATTAAACTTCGTAATGAATTACGTGTTCACTCTTGAGACTTGGTATTCATTTTTCGTCTTGCGACGTTAAGAATCCGTATCTTCGAGTGCCCACACAGATTGTCTGATAAATTGTTAAAGAGCAGTTGCGACGCGGCTTTCAGCTCACTGTCGCGAGGTGGCGTATATTACGCTTTCCTCTTTCAGAGTCAACCCTGAATTTCAGGATTTTTTTCTCTTCGTTGTTCCGACCATCCTGTGAAGTGTTTCACGTTGTCGTCTCAACGGAGGCGCATTATAGGGATCCCAATTTTTTGCACAAGTATTTTTTTGATCTTTTTTTCTGTTTGTTGTTTTTTCACCCTTTTTGCTGCAATCGCACACAAAACGGTGCTTTTTTGCATACTAAAAGACTTGCACAAGGCCAATAATGCCCCCAAAGTCATTAGTAAATCATTTATTGCTGAGGTAAGTATGTCTGATGTTTTACGCCCATACCGCGATCTTTTTCCACAAATCGGTCAGCGCGTAATGATCGAGATCTTC (double strand) [rrnD promoter probe]", "values": [
      {"measurement": "binding result", "setting": "[1]", "value": "binds"}
    ]},
    {"sequence": "GGAATTCAAAATGTTGACGCTCAAAGAATTAAACTTCGTAATGAATTACGTGTTCACTCTTGAGACTTGGTATTCATTTTTCGTCTTGCGACGTTAAGAATCCGTATCTTCGAGTGCCCACACAGATTGTCTGATAAATTGTTAAAGAGCAGTGCCGCTTCGCTTTTTCTCAGCGGCGCGGGGTGTGCATAATACGCCTTCCCGCTACAGAGTCAAGCATTTATTTTTGCTTTCTCTGCCGGAGTTCTCAGGAGAACCCCGCTGACCCGGCGGCGTGTTTGCCGTTGTTCCGTGTCAGTGGTGGCGCATTATAGGGAGTTATTCCGGCCTGACAAGAGGAAATTTAAAATAATTTTCTGACCGCGCATTTTTTATTCTTTATGCTTATTTCAGCGTCGGTTTGTCGGTTAAATGGGCGATTTCTCGGGCGAAATTCGCCACCTGCTCCCAATCGGTATAGACAACTTCTTTGCGCGTATCCGTTTCACCGCCTGACATCTTCATAATCAGCTTGATCATAAAACGGTCGTACCAGCGATAACGAGATCTTC (double strand) [rrnA promoter probe]", "values": [
      {"measurement": "binding result", "setting": "[1]", "value": "binds"}
    ]},
    {"sequence": "GGAATTCAAAAGTTTGATGCTCAAAGAATTAAACTTTGTAATGAATTACGTGTTCACTCTTGAGACTTGGTATTCATTTTTCGTCTTGCGACGTTAAGAATCCGTATCTTCGAGTGCCCACACAGATTGTCTGATAAATTGTTAAAGAGCAGTTGCGACGCGGCTTTCAGCTCACTGTCGCGAGGTGGCGTATATTACGCTTTCCTCTTTCAGAGTCAACCCTGAATTTCAGGATTTTTCTCTTCAACCGAACCGGCTGTTTGTGTGAAGTGATTCACATCCGCCGTGTCGATGGAGGCGCATTATAGGGAGTCGGCTCAGGAAGACAAGCGGAAAAATGCATTTTTATTTCAACCGCTCATCTTTTAATCATTGTGCCGGTTTTTGCTGCTTTTTTATCGCTTGCGGCAGGTCTGCCAGGCTATTTAACACCCAATCCGCCGCGTTTTCTGCTTCAGGCGTAATAGGTTTACCCGTACGCACCAGCACTTTTGTTCCCACGTTCGCCGCAACCGCTGCCTGCAGATCAGATCTTC (double strand) [rrnH promoter probe]", "values": [
      {"measurement": "binding result", "setting": "[1]", "value": "binds"}
    ]}
  ]
}
